# Percent effect of library compounds

Amino acid sequences for entries named in this document (tags omitted). Residues count along the entry.
UniProt Q4DA54, 1-478: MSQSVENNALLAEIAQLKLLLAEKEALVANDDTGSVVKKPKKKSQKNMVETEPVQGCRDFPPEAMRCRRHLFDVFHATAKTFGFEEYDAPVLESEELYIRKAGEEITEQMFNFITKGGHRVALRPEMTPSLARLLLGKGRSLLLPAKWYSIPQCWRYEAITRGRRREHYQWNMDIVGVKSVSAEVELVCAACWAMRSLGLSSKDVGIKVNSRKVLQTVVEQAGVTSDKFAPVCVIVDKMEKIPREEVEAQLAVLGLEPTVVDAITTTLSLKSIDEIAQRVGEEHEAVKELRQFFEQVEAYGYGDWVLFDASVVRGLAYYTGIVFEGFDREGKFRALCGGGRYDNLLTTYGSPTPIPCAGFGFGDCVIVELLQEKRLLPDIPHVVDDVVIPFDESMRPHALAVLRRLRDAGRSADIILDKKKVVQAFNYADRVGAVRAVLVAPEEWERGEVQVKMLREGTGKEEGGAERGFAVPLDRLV
UniProt P9WNZ1, whole entry: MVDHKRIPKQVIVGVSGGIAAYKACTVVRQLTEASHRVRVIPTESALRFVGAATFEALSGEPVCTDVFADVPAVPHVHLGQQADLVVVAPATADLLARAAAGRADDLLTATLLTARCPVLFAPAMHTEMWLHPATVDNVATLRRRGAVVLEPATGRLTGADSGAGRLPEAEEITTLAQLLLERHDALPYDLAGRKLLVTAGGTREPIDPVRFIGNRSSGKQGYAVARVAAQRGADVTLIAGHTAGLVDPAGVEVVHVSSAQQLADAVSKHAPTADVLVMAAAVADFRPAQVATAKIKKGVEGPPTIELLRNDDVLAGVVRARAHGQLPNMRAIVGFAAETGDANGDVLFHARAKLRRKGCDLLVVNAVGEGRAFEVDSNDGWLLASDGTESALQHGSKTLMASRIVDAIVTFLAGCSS
UniProt P9WPC5, whole entry: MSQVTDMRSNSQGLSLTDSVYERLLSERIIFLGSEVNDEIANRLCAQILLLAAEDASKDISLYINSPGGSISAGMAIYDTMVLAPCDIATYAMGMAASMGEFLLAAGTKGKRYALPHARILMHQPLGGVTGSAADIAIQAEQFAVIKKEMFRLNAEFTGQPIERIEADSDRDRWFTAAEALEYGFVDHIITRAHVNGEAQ
UniProt P9WPC3, whole entry partner: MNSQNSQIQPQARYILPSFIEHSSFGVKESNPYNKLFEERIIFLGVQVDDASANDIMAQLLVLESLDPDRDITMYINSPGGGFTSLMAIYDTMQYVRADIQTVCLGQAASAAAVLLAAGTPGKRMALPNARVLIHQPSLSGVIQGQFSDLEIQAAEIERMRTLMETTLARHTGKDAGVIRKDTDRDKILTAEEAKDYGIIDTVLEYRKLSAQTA
UniProt Q8IDJ8, 1-583: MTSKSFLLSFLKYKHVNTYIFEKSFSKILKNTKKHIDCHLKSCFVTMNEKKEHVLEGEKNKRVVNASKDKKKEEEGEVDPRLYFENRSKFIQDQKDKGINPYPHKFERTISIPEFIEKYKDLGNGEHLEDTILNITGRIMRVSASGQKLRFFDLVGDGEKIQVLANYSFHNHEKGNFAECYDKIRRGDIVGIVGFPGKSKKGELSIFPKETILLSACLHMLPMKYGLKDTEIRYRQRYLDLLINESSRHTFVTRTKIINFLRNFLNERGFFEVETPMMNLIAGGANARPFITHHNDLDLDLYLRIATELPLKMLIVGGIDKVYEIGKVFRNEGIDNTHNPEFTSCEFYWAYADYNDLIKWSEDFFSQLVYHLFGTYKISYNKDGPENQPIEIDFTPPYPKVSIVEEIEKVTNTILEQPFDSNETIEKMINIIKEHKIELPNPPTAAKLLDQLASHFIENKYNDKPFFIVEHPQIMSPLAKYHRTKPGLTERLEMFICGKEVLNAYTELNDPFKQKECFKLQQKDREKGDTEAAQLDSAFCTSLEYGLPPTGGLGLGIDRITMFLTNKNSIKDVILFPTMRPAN

Results are given as percent effect. The record does not define 0% and 100%; most values in the screen are far below 50% and negative numbers occur (in some assays of this library far below -100). Compounds were drawn at random from those tested, without regard to their results. Two or more numbers in one place are separate tests of the same structure; such repeats can differ widely. A dash means the value is not listed here; it may have been measured.

Leishmania in macrophages: 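Cell assay of Leishmania donovani living inside macrophages; the read-out is not stated. Compounds at 30 µM. Higher reads as stronger inhibition (inferred: compounds with an IC50 in retests scored well above the rest). About 69,000 compounds were tested under these conditions; 1.5% (about 1,000) showed 50% or more at least once.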
TcHisRS: 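Histidine-tRNA ligase, Trypanosoma cruzi CL Brener (UniProt Q4DA54). Enzyme assay of histidyl-tRNA synthetase; the read-out is not stated. Tested at 30 µM. Direction is inferred from retests: higher values go with stronger inhibition. About 69,000 compounds were tested under these conditions; 0.045% (about 31) showed 50% or more at least once.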
CoaBC: 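Coenzyme A biosynthesis protein CoaBC, Mycobacterium tuberculosis (UniProt P9WNZ1). Enzyme assay of CoaBC with a phosphate dye (Biomol Green) read at 650 nm. Compounds at 30 µM. Direction is inferred from only a few compounds that gave an IC50; most scored high, so higher reads as stronger inhibition. Most strong results did not repeat in a second test. Of about 67,000 compounds tested this way, about 40 (0.06%) reached 50% or more in at least one test.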
ClpP1P2: 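Protease assay of ClpP1P2, read by the AMC dye that it sets free. Target: ClpP1P2, Mycobacterium tuberculosis (UniProt P9WPC5 and UniProt P9WPC3). Compounds at 50 µM. Higher reads as stronger inhibition, judged from the few compounds that gave an IC50. Most other retested compounds had strongly negative values. Of about 69,000 compounds tested this way, about 10 (0.015%) reached 50% or more in at least one test.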
PfKRS1: 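Enzyme assay of the cytosolic lysyl-tRNA synthetase in 384-well plates, read by luminescence. Target: Lysine-tRNA ligase, Plasmodium falciparum 3D7 (UniProt Q8IDJ8). Compounds at 30 µM. Higher reads as stronger inhibition, judged from the few compounds that gave an IC50. About 69,000 compounds were tested under these conditions; 0.071% (about 49) showed 50% or more at least once.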

| # | SMILES | Leishmania in macrophages | TcHisRS | CoaBC | ClpP1P2 | PfKRS1 |
|---|---|---|---|---|---|---|
| 1 | `Fc1ccc(Oc2nccnc2C2CCN(C3CCOCC3)CC2)cc1` | 7.268% | -1.55% | 6.701% and 39.63% | -5.529% | 2.432% |
| 2 | `CCO[C@@H]1CC[C@H]2[C@H]1OCCN2C(=O)c1nn(C)c2ccccc12` | - | -1.111% | -1.707% | -2.565% | 3.252% |
| 3 | `O=C(NCc1nncn1C1CC1)c1ccc(F)c(COCC2CC2)c1` | -14.81% | 0.5236% | 17.77% | -3.886% | 2.284% |
| 4 | `Cn1nc(C2CCCN(Cc3ccsc3)C2)c2nccnc21` (configuration not stated) | 16.62% | 3.784% | 6.389% | 7.242% | 8.244% |
| 5 | `CC(C)COCC1CN(C(=O)c2cscn2)Cc2ncn(C)c21.O=C(O)C(F)(F)F` (configuration not stated) | 35.45% | - | - | - | - |
| 6 | `Cc1ccc(N2CCN(c3ccccc3C)CC2C)nn1` (configuration not stated) | 9.128% | 6.404% | 0.9677% | -11.82% | 9.52% |
| 7 | `COC(=O)c1ccc(-c2noc(CN(CCO)Cc3cccs3)n2)cc1` | -6.067% | 1.98% | 1.687% | -6.586% | -3.821% |
| 8 | `COCCNC(=O)NCC(C)c1ccccc1OC` (configuration not stated) | 11.14% | 3.614% | -1.485% | -0.4163% | 3.587% |
| 9 | `Cc1nccc(CNC(=O)N2CCN(Cc3ccccc3)C[C@H]2C)n1` | 3.522% | 7.097% | 1.208% | 4.026% | 5.936% |
| 10 | `CC(C)N(C)Cc1nnc2n1CCN(Cc1ccncc1)CC2` | - | 0.5405% | 1.396% | -1.468% | 0.1187% |
| 11 | `Cc1ccc(C(=O)NCc2ccccc2S(=O)(=O)N(C)CCO)cc1F` | 0.4648% | 3.191% | 8.46% | -5.927% | 3.132% |
| 12 | `Cn1cc(CN2CC[C@H]3O[C@H](C(=O)Nc4cnccn4)CC[C@H]32)cn1` | - | 12.06% | -5.008% | 23.56% | 0.5622% |
| 13 | `COc1ccc(CCN2CCN(C(=O)c3scnc3C)CC2)cc1` | 20.73% | 1.087% | 2.294% | -6.262% | 9.553% |
| 14 | `c1cnc(N2C[C@H]3CCN(Cc4ccncc4)C[C@H]3C2)nc1` | - | 4.523% | 4.579% | 5.995% | 2.969% |
| 15 | `CC(C)Cn1ccnc1CNC(=O)N1CCCC1CN1CCOCC1` (configuration not stated) | -4.354% | 6.077% | -2.42% | -3.571% | -0.5591% |
| 16 | `COCCNC(=O)c1cc(-c2cc[nH]n2)n2ccccc12.O=C(O)C(F)(F)F` | -41.97% | - | - | - | - |
| 17 | `COC(=O)c1ccc2c(-c3ccnc(N[C@@H](C)CO)n3)c[nH]c2c1` | 3.19% and -5.04% | 7.91% | 3.735% | 6.351% | 4.082% |
| 18 | `CN(Cc1cnccn1)S(=O)(=O)c1ccc(C(F)(F)F)nc1` | -16.98% | 8.173% | 6.489% | -11.78% | -0.7298% |
| 19 | `Cl.c1cc(CNCc2ccnc(N3CCCC3)c2)c2c(c1)OCCO2` | 16.11% | - | - | - | - |
| 20 | `COc1cccc(C(=O)N2CCc3c(nc(N)[nH]c3=O)C2)c1C` | 22.12% | 2.242% | 1.523% | -4.392% | 3.494% |
| 21 | `Cc1cc(NC(=O)CN2CCn3c(nnc3C(C)C)C2)on1` | -8.767% | 5.882% | 4.536% | -1.883% | -1.403% |
| 22 | `c1cc(CNc2nnc(Cc3ccsc3)o2)cs1` | -6.868% | 14.47% | - | -7.603% | 4.05% |
| 23 | `c1ccc(-c2cccc(-c3ccn(CCN4CCCCC4)n3)c2)nc1` | -23.52% | 3.488% | -25.75% | -11.49% | 1.057% |
| 24 | `CS(=O)(=O)NCC1CCCN(C(=O)Nc2cccnc2N2CCCC2)C1` (configuration not stated) | 4.026% | 7.609% | 4.723% | 4.6% | 3.471% |
| 25 | `O=C(O)C(F)(F)F.[H][C@@]12CCN(C3CCOCC3)C[C@]1([H])[C@H](C(=O)NC)CCO2` | -8.01% | - | - | - | - |
| 26 | `CCS(=O)(=O)N1C[C@@H](O)[C@H](N(C)Cc2ccc(F)cc2)C1` | 24.4% | 3.448% | 3.589% | -8.524% | -0.04271% |
| 27 | `COCC(C)N(Cc1ccccc1OC)C(=O)c1cc(C)[nH]c(=O)c1` (configuration not stated) | 18.87% | 6.061% | 0.7673% | -7.688% | 2.527% |
| 28 | `CN(C)c1ncnc2c1CCN(S(=O)(=O)c1cccc3nsnc13)C2` | 16.56% | 8.247% | 16.04% | 11.09% | 9.376% |
| 29 | `COc1ccc(C(C(=O)O)N(C)Cc2c(C)nn(C)c2C)c(C)c1` (configuration not stated) | -14.18% | 5.051% | -0.3367% | 3.149% | 4.036% |
| 30 | `O=C(NCCc1ccc(Cl)s1)NCc1nnc2n1CCCC2` | 11.77% | 4.046% | 0.3911% | -4.5% | 0.4366% |
| 31 | `O=C(NCc1nc(NC2CCCC2)c2cc(Cl)ccc2n1)c1ccoc1` | 22.38% | 4.712% | 21.19% and 14.81% | -12.83% | -0.4698% |
| 32 | `O=C(O)C(F)(F)F.[H][C@@]12COC[C@]1(CNC(=O)c1ccccc1)CN(Cc1nccs1)C2` | 17.27% | - | - | - | - |
| 33 | `NC(=O)Cn1cnc2nc3n(c2c1=O)CCC3` | 0.9317% | 9.278% | 3.356% | 17.33% | -1.28% |
| 34 | `CC(c1ccc(Cl)cc1)N1CCN(CCS(N)(=O)=O)CC1` (configuration not stated) | -4.624% | 5.155% | -2.689% | -9.718% | 3.717% |
| 35 | `COCC(=O)NCc1cc(=O)n2c(n1)CN(Cc1ccoc1)CCC2` | 10.68% | 13.07% | 6.947% | 9.692% | 3.017% |
| 36 | `CN(C)c1cccc(C(=O)Nc2ccn(CCc3ccncc3)n2)c1` | 12.07% | 0% | 2.39% | -2.757% | 8.158% |
| 37 | `CC(N)Cc1ccccc1Sc1ccc(O)cc1.CC(N)Cc1ccccc1Sc1ccc(O)cc1.O=C(O)C(=O)O` (configuration not stated) | 78.04% | - | - | - | - |
| 38 | `c1nc(N2CCOCC2)sc1-c1cncn1CCCN1CCCCC1` | - | 5.085% | -2.421% | -6.904% | 2.2% |
| 39 | `Cc1nc2sccn2c1CN(CCCN(C)C)Cc1ccco1` | - | 6.061% | -2.466% | -9.075% | 0.2689% |
| 40 | `O=C(C1CC1)N1C[C@@H](F)[C@@H](OCc2nc3cc(F)ccc3[nH]2)C1` | 18.88% | 3.261% | -5.96% | 3.518% | 1.362% |
| 41 | `O=C(C1CC1)N1CCC[C@]2(C[C@@H](OCc3ccncc3)CO2)C1.O=C(O)C(F)(F)F` | 11.55% | - | - | - | - |
| 42 | `CCN(CC)C(=O)Cn1cc(C(=O)NCCCc2scnc2C)nn1` | 4.837% | 2.717% | -9.091% | -7.806% | -0.6222% |
| 43 | `Cc1ccc(C(=O)N2CCC3(CC2)c2ccccc2[C@@H](N)[C@@H]3O)c(=O)[nH]1` | 20.48% | -0.8333% | 12.84% | -10.65% | 5.401% |

The last 2 entries again:

SMILES	Leishmania in macrophages	TcHisRS	CoaBC	ClpP1P2	PfKRS1
CCN(CC)C(=O)Cn1cc(C(=O)NCCCc2scnc2C)nn1	4.837%	2.717%	-9.091%	-7.806%	-0.6222%
Cc1ccc(C(=O)N2CCC3(CC2)c2ccccc2[C@@H](N)[C@@H]3O)c(=O)[nH]1	20.48%	-0.8333%	12.84%	-10.65%	5.401%

The values are deposited in ChEMBL (CHEMBL3988442, “University of Dundee, Small-Polar-MMV Screening Library” (2021)).